From patent publication US11921105B2, “Method for identifying positive allosteric modulators for odorant receptors” (FIRMENICH SA, priority 2017, dated 2024)
At least one structure is not confirmed: it was looked up by name or label, or the drawing left a doubt.

Tested on: human panelists
Experiment: Human psychophysical odor detection threshold of musk compounds
Type: in vivo
Conditions: human panel

Compound	Mean odor detection threshold Log (μmol/l air)	Median odor detection threshold Log (μmol/l air)
CC1CC=CCCCCCCCCCC(=O)C1 (stereo not shown) [Muscenone ®]	1.26e^−7 Log (μmol/l air)	1.04e^−7 Log (μmol/l air)
C[C@@H]1CCCCCCCCCCCCC(=O)C1 [Muscone]	1.21e^−6 Log (μmol/l air)	1.09e^−6 Log (μmol/l air)
